Our source for the binding values is publication PMC11130243.

The chains behind the UniProt entries cited, without tags or fusion partners.
UniProt P23458: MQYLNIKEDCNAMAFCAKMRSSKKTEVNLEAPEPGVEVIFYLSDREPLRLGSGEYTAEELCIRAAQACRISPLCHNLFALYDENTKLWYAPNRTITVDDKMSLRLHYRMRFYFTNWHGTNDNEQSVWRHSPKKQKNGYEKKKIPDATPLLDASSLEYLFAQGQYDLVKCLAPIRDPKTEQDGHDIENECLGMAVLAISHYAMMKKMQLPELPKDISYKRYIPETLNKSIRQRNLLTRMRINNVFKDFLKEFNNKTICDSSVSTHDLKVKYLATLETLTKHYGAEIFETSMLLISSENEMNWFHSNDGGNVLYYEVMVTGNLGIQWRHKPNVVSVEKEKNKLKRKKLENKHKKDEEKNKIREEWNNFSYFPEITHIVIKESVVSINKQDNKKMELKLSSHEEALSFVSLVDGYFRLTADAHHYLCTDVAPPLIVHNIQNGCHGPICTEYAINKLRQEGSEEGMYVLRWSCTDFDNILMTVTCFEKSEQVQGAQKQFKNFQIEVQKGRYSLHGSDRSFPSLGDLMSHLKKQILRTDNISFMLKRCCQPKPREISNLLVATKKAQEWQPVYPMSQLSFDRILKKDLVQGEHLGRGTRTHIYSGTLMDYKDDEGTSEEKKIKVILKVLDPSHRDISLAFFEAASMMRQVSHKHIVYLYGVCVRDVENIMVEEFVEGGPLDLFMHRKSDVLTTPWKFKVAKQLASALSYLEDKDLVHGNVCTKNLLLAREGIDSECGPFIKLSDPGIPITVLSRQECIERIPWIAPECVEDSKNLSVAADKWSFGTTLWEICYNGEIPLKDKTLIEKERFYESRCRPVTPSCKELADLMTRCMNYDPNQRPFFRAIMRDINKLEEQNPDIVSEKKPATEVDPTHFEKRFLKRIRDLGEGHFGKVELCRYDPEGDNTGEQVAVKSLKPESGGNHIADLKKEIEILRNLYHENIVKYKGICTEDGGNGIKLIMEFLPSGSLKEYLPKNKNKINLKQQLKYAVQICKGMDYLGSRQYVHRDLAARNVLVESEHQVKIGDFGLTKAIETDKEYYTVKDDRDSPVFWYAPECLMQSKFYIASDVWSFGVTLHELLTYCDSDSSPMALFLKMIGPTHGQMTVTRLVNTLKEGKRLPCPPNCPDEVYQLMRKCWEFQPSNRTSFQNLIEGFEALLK

One test has as its target T1, Flag-PJA2 (human) (UniProt O43164).
T1 sequence: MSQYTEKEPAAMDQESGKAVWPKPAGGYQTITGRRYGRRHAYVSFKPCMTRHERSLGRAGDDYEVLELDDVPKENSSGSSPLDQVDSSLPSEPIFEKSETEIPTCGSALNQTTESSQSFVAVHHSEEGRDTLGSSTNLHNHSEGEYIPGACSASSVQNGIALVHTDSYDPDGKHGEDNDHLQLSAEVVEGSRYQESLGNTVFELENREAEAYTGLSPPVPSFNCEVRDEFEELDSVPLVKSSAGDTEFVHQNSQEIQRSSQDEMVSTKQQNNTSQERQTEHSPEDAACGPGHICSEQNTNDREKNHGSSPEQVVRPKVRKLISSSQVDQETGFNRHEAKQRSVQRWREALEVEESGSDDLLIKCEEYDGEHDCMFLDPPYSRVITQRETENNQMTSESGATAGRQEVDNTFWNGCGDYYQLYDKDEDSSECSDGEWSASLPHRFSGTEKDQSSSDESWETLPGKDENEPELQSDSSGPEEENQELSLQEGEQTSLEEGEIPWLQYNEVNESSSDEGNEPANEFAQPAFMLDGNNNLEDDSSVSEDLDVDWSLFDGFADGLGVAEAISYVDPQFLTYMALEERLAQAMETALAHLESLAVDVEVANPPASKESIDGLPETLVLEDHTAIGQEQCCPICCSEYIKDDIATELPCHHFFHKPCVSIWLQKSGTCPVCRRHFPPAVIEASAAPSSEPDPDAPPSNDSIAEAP
As to the kind of experiment: co-IP; HEK293T transfected with Flag-PJA2 variants (control Flag-mCherry); standard co-IP lysis buffer (50 mM Tris HCl pH 7.5, 150 mM NaCl, 1 mM EDTA, 1% Triton X-100); anti-Flag IP, Protein G Dynabeads; TYK2 or JAK1 immunoblotted. In general terms: Immunoblotting shows a protein as a band on a membrane.

The target in another test is T2, Flag-PJA2-rm (human) (UniProt O43164).
T2 sequence: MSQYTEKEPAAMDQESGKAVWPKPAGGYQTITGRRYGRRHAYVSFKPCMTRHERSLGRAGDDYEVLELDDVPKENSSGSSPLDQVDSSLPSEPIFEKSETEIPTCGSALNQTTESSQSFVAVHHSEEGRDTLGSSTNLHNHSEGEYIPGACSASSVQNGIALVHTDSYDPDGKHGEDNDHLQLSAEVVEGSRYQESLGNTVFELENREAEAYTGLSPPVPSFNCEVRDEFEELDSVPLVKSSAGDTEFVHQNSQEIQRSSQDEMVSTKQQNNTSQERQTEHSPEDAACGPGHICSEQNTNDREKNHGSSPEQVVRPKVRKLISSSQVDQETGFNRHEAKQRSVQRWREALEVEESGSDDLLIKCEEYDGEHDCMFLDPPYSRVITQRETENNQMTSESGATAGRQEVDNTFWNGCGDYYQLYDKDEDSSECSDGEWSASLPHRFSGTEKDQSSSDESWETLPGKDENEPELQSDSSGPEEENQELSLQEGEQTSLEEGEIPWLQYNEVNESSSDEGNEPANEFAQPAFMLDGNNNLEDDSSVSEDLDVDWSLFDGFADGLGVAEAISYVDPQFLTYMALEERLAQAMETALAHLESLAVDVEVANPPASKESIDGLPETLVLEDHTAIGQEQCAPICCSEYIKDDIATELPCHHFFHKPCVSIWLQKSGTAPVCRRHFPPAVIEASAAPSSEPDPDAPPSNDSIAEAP
Described as above.

Another test addresses V5-TYK2 (human) (UniProt P29597). Nature of the test: co-IP; HEK293T transfected with V5-TYK2 constructs (controls GST-V5 or V5-GFP; with NTC or PJA2 siRNA in Fig. 6f); standard co-IP lysis buffer (50 mM Tris HCl pH 7.5, 150 mM NaCl, 1 mM EDTA, 1% Triton X-100); anti-V5 IP, Protein G Dynabeads; endogenous PJA2 immunoblotted.
For the next test, the target named is T3, V5-TYK2(1-588) (human) (UniProt P29597).
T3 sequence: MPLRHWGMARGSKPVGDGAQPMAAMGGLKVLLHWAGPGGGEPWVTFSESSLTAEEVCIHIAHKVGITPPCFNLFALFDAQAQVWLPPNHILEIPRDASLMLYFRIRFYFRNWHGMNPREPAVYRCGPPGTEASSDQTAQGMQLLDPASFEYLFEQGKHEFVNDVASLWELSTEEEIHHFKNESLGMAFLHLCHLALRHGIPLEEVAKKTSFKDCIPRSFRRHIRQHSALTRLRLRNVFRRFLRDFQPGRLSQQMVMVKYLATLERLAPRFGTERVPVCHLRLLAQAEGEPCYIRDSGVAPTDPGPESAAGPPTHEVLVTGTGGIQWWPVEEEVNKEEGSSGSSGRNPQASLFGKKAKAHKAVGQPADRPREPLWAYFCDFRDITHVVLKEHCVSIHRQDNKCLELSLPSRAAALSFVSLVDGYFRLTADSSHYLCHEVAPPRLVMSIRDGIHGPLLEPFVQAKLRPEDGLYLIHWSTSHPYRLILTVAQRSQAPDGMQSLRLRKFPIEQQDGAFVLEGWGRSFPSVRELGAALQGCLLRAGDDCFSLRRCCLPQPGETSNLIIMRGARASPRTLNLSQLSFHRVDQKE
The test is described as above.

The target of test [1] is TurboID-V5-TYK2 (transfected in HEK293T) (human) (UniProt P29597). Nature of the test: co-IP; HEK293T co-transfected with Flag-PJA2 and each TurboID-V5-tagged type I IFN signaling component; cell lysates, IP, immunoblotting.
For test [2], the target named is TurboID-V5-JAK1 (transfected in HEK293T) (human) (UniProt P23458). Described as above.

These are yes or no findings as the source states them, for the method shown. In cells and extracts the contact can be indirect. Some results given as binding are weak or reduced against the parent protein; the word gives no strength. For part of these data: Sequences can lack the tags named with a protein.

For the molecule “TYK2 (endogenous, HEK293T) (from UniProt P29597 1-1187) (enzyme)”, the binding entry in the test with Flag-PJA2 (human) and with Flag-PJA2-rm (human) was “binds” in each case.

B1: PJA2 (endogenous, HEK293T) (enzyme, UniProt O43164 1-708)
chain: MSQYTEKEPAAMDQESGKAVWPKPAGGYQTITGRRYGRRHAYVSFKPCMTRHERSLGRAGDDYEVLELDDVPKENSSGSSPLDQVDSSLPSEPIFEKSETEIPTCGSALNQTTESSQSFVAVHHSEEGRDTLGSSTNLHNHSEGEYIPGACSASSVQNGIALVHTDSYDPDGKHGEDNDHLQLSAEVVEGSRYQESLGNTVFELENREAEAYTGLSPPVPSFNCEVRDEFEELDSVPLVKSSAGDTEFVHQNSQEIQRSSQDEMVSTKQQNNTSQERQTEHSPEDAACGPGHICSEQNTNDREKNHGSSPEQVVRPKVRKLISSSQVDQETGFNRHEAKQRSVQRWREALEVEESGSDDLLIKCEEYDGEHDCMFLDPPYSRVITQRETENNQMTSESGATAGRQEVDNTFWNGCGDYYQLYDKDEDSSECSDGEWSASLPHRFSGTEKDQSSSDESWETLPGKDENEPELQSDSSGPEEENQELSLQEGEQTSLEEGEIPWLQYNEVNESSSDEGNEPANEFAQPAFMLDGNNNLEDDSSVSEDLDVDWSLFDGFADGLGVAEAISYVDPQFLTYMALEERLAQAMETALAHLESLAVDVEVANPPASKESIDGLPETLVLEDHTAIGQEQCCPICCSEYIKDDIATELPCHHFFHKPCVSIWLQKSGTCPVCRRHFPPAVIEASAAPSSEPDPDAPPSNDSIAEAP
Take B1: the binding entry with V5-TYK2 (human) and in the test with V5-TYK2(1-588) (human) was “binds” in each case.

B2: Flag-PJA2 (enzyme, UniProt O43164-1 1-708)
chain: MSQYTEKEPAAMDQESGKAVWPKPAGGYQTITGRRYGRRHAYVSFKPCMTRHERSLGRAGDDYEVLELDDVPKENSSGSSPLDQVDSSLPSEPIFEKSETEIPTCGSALNQTTESSQSFVAVHHSEEGRDTLGSSTNLHNHSEGEYIPGACSASSVQNGIALVHTDSYDPDGKHGEDNDHLQLSAEVVEGSRYQESLGNTVFELENREAEAYTGLSPPVPSFNCEVRDEFEELDSVPLVKSSAGDTEFVHQNSQEIQRSSQDEMVSTKQQNNTSQERQTEHSPEDAACGPGHICSEQNTNDREKNHGSSPEQVVRPKVRKLISSSQVDQETGFNRHEAKQRSVQRWREALEVEESGSDDLLIKCEEYDGEHDCMFLDPPYSRVITQRETENNQMTSESGATAGRQEVDNTFWNGCGDYYQLYDKDEDSSECSDGEWSASLPHRFSGTEKDQSSSDESWETLPGKDENEPELQSDSSGPEEENQELSLQEGEQTSLEEGEIPWLQYNEVNESSSDEGNEPANEFAQPAFMLDGNNNLEDDSSVSEDLDVDWSLFDGFADGLGVAEAISYVDPQFLTYMALEERLAQAMETALAHLESLAVDVEVANPPASKESIDGLPETLVLEDHTAIGQEQCCPICCSEYIKDDIATELPCHHFFHKPCVSIWLQKSGTCPVCRRHFPPAVIEASAAPSSEPDPDAPPSNDSIAEAP
For the molecule B2, the binding entry in test [1] and in test [2] was “binds” in each case.
